Results deposited as PubChem BioAssay AID504774 (Drosophila RNAi Screening Center, 2011)

- Screen: 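Knock-downs that shift viability of MMS-exposed cells relative to untreated ones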 (primary screen)
- System: Drosophila Kc167 cells
- Reagent: long dsRNA against Drosophila genes, about 0.25 µg dsRNA per well
- Time to read-out: about 6 days: 3 days knock-down, then 3 days with or without MMS
- Challenge: methyl methanesulphonate 0.004% (w/v) for 3 days after knock-down
- Measured: 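Viability in wells given MMS, read as ATP luminescence, normalised by quantiles plate by plate and averaged across replicates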
- Direction: mean viability with MMS and viability with MMS: higher = more surviving cells after MMS
The screen tested about 23,000 reagents; shown is an unselected part of those with a known target gene and a result. 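Values are quantile-normalised luminescence on an arbitrary scale; higher means more cells surviving MMS.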 A plus sign joins genes that one reagent is predicted to hit. Further read-outs or replicates are left out here. Reagent sequences are not shown.

gene knocked down | dsRNA | mean viability with MMS | viability with MMS, replicate 1
CG6429 | DRSC06986 | 3.46e6 | 3.80e6
Rpp21 | DRSC22480 | 3.75e6 | 4.17e6
HP1D3csd | DRSC19548 | 3.46e6 | 3.96e6
CG13038 | DRSC09919 | 3.61e6 | 4.19e6
CG30380 | DRSC05069 | 3.49e6 | 3.92e6
CG32305 | DRSC08614 | 3.62e6 | 4.08e6
CG30349 | DRSC06421 | 3.46e6 | 3.99e6
CG30349 | DRSC06839 | 3.40e6 | 3.92e6
CG42507 + Trl | DRSC09325 | 3.35e6 | 3.78e6
CG42507 + Trl | DRSC11308 | 2.76e6 | 3.56e6
Dtg | DRSC15998 | 3.67e6 | 4.14e6
CG12689 | DRSC17879 | 3.51e6 | 3.95e6
CG10845 | DRSC14272 | 3.70e6 | 4.22e6
PKD | DRSC16200 | 3.55e6 | 3.85e6
gcl | DRSC07623 | 3.41e6 | 3.81e6
Mi-2 + Su(Tpl) | DRSC09640 | 3.54e6 | 4.11e6
Ets65A | DRSC09968 | 3.53e6 | 3.93e6
Ets65A | DRSC10738 | 3.67e6 | 4.24e6
Ets65A | DRSC11164 | 3.62e6 | 4.02e6
mil | DRSC15696 | 3.68e6 | 4.14e6
CG42353 + CG42354 | DRSC23154 | 3.57e6 | 4.00e6
Mco4 | DRSC20061 | 3.61e6 | 4.21e6
Cyt-b5-r | DRSC03308 | 3.44e6 | 3.94e6
hpRNA:CR18854 | DRSC02702 | 3.49e6 | 3.97e6
CG1774 | DRSC15258 | 3.45e6 | 4.06e6
CG31913 | DRSC00892 | 3.57e6 | 4.21e6
tfc | DRSC07953 | 3.70e6 | 4.09e6
tfc | DRSC07954 | 3.52e6 | 3.87e6
tfc | DRSC08626 | 3.65e6 | 4.13e6
tfc | DRSC21704 | 3.51e6 | 3.91e6
obe | DRSC15736 | 3.36e6 | 3.83e6
Diap2 | DRSC07444 | 3.64e6 | 4.10e6
Coop | DRSC06604 | 3.15e6 | 2.60e6
Z600 | DRSC11317 | 3.57e6 | 4.02e6
Anp | DRSC14112 | 3.50e6 | 3.91e6
sw | DRSC20388 | 3.43e6 | 3.88e6
Act79B | DRSC11604 | 3.51e6 | 3.94e6
Rrp46 | DRSC15537 | 3.64e6 | 4.07e6
Charon | DRSC00679 | 3.71e6 | 4.14e6
Vps37B | DRSC12165 | 3.50e6 | 4.04e6
CkIIalpha | DRSC11946 | 3.40e6 | 3.83e6
CG6295 | DRSC16012 | 3.47e6 | 3.81e6
CG7943 | DRSC16351 | 3.54e6 | 4.01e6
Hpf1 | DRSC12202 | 3.74e6 | 4.30e6
Ge-1 | DRSC02938 | 3.17e6 | 3.71e6
CG14488 | DRSC06460 | 3.55e6 | 4.03e6
Nup153 | DRSC19904 | 3.13e6 | 3.61e6
Ir67a | DRSC09897 | 3.69e6 | 4.22e6
sicily | DRSC19704 | 3.63e6 | 4.14e6
Eig71Eh | DRSC11155 | 3.64e6 | 4.12e6
CG34006 (retired record) | DRSC13817 | 3.43e6 | 3.88e6
CG13784 | DRSC00974 | 3.66e6 | 4.17e6
CG13784 | DRSC02287 | 3.44e6 | 3.74e6
TotA | DRSC13448 | 3.71e6 | 4.25e6
Asator | DRSC17136 | 3.69e6 | 4.32e6
CG6873 | DRSC20014 | 3.40e6 | 3.84e6
Pkc98E | DRSC16791 | 3.48e6 | 4.00e6
Adss | DRSC14162 | 3.32e6 | 3.76e6
CG13843 | DRSC14693 | 3.45e6 | 4.00e6
CG42286 (retired record) | DRSC14357 | 3.36e6 | 3.85e6
CG13315 | DRSC09986 | 3.43e6 | 3.71e6
CG9988 | DRSC16587 | 3.55e6 | 4.10e6
CG34124 | DRSC00849 | 3.38e6 | 3.92e6
Pex23 | DRSC10323 | 3.58e6 | 4.06e6
Pex23 | DRSC10645 | 3.63e6 | 4.19e6
KCNQ | DRSC06121 | 3.60e6 | 4.14e6
KCNQ | DRSC06230 | 3.60e6 | 4.01e6
CG17026 | DRSC10237 | 3.76e6 | 3.90e6

Only “viability with MMS, replicate 1”, for 3 of the entries above:
Nup153 [DRSC19904]	3.61e6
Ir67a [DRSC09897]	4.22e6
sicily [DRSC19704]	4.14e6
